Assay results reported in publication doi:10.1101/074989.
These are yes or no findings as the source states them, for the method shown. Some entries that bind do so weakly or less than the wild type.

Chains of the proteins cited; added tags and fusions are not shown.
UniProt P35631: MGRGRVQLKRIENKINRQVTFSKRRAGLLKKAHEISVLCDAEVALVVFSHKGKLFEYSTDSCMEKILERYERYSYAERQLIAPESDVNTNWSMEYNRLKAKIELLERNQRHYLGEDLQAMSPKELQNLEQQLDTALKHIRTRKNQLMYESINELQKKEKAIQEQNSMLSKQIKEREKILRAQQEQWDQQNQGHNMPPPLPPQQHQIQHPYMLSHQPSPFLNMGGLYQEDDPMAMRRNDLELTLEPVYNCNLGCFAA

Experiments:
[1] = molecular target: SHORT … PHASE (Arabidopsis thaliana) (Arabidopsis thaliana) (UniProt Q9FVC1); test: two-hybrid
[2] = molecular target: T1, AGL24 (Arabidopsis thaliana) (Arabidopsis thaliana) (UniProt O82794); test: two-hybrid
T1 sequence: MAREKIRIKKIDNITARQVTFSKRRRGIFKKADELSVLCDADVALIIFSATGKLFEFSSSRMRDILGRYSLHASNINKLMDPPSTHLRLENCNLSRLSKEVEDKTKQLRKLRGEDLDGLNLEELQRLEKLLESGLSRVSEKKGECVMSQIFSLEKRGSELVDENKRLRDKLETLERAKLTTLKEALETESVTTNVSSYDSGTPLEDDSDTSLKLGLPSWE

- binding [1]: binds
- binding [2]: binds
Sequence: APETALLA 1 (Arabidopsis thaliana) (from UniProt P35631 1-256)
